The target of the assay is PacL1 protein fused to a C-terminal ALFA tag (M. tuberculosis) (UniProt P96874). The assay is described as follows: proximity labelling.

Protein sequences, listed by entry. Tags and fused reporters are not part of them. Lines headed by an entry give the natural chain unless they say otherwise; changes in a name come on top.
UniProt P96874: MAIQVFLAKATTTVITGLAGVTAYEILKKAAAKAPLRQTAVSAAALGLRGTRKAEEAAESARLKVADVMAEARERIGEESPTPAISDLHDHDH

These are yes or no findings as the source states them, for the method shown. Binding seen in cells or lysates may run through a third protein. Here binding means that the protein was enriched with, or labelled near, the bait; the list need not be complete.

B1: Rv0887c (protein, UniProt P9WKQ3 1-170)
chain: MSLSGPRIGRAHQQQGDTMAINVEPALSPHLVVDDAASAIDFYVKAFDAVELGRVPGPDGKLIHAALRINGFTVMLNDDVPQMCGGKSMTPTSLGGTPVTIHLTVTDVDAKFQRALNAGATVVTALEDQLWGDRYGVVADPFGHHWSLGQPVREVNMDEIQAAMSSQGDG
As for B1, the binding result is listed as “binds”.

B2: Citrate (Pro-3S)-lyase beta subunit (protein, UniProt P9WPE1 1-273)
chain: MNLRAAGPGWLFCPADRPERFAKAAAAADVVILDLEDGVAEAQKPAARNALRDTPLDPERTVVRINAGGTADQARDLEALAGTAYTTVMLPKAESAAQVIELAPRDVIALVETARGAVCAAEIAAADPTVGMMWGAEDLIATLGGSSSRRADGAYRDVARHVRSTILLAASAFGRLALDAVHLDILDVEGLQEEARDAAAVGFDVTVCIHPSQIPVVRKAYRPSHEKLAWARRVLAASRSERGAFAFEGQMVDSPVLTHAETMLRRAGEATSE
Consider B2, for which the binding entry was “binds”.
